# Data: PubChem BioAssay AID493014 (National Center for Advancing Translational Sciences (NCATS), 2011)
# Some of the results follow. The main result of the screen is listed elsewhere. These columns were measured beside it and carry no call. The list favours compounds with an active or inconclusive main result. Potencies come from curve fits of mixed quality, noted in brackets.
# Assay: qHTS Assay to Find Inhibitors of Chronic Active B-Cell Receptor Signaling
# Conditions: ABC-DLBCL IkBa-CBG/CBR reporter, luminescence ratio (green luciferase fused to IkBa over red control in TMD8 lymphoma cells), 4 h
# Method in brief: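 Concentration-response series (up to 46 uM) were applied to TMD8 dual-reporter cells for 4 h at 37C with doxycycline. Green/red ratio, after filter-overlap correction, defined %Activity; red signal alone was normalised to basal cells and zero luminescence.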
# [1] = measured here: CBR red luminescence, cell number
SMILES,AC50 [1],AC50 (measured here: IkBa-CBG green luminescence)
CC/C(=N\NC(=O)C1CC1)c1cccc(Cl)c1,"8.91 µM [rising, partial curve, poor fit]",–
O=C(c1cccs1)N(C(=O)c1cccs1)c1ccc(Br)cn1,"5.8 µM [falling, full curve, poor fit]",–
Cc1ccc(S(=O)(=O)c2nc(S(C)(=O)=O)sc2N2CCCCC2C)cc1 (centres undefined),"17.8 µM [falling, partial curve]",–
CC(=O)Nc1ccc(-c2csc(NC(=O)Nc3ccccc3)n2)cc1,"35.5 µM [falling, single point]",–
CSc1ccccc1C(=O)Nc1nc2ccccc2c(=O)[nH]1,"0.501 µM [falling, full curve]",–
O=c1cc(COc2ccc(Cl)c(Cl)c2)nc2sccn12,"5.01 µM [rising, full curve, poor fit]",–
CCc1cccc(CC)c1NC(=O)CN1CCN(S(=O)(=O)c2ccccc2)CC1,"0.0891 µM [falling, full curve, poor fit]",–
O=C(Nc1ccc(N2CCN(C(=O)c3ccccc3)CC2)c(Cl)c1)c1ccc(Br)o1,"17.8 µM [falling, single point]",–
Cc1sc(NC(=O)c2cc(-c3ccccc3)nc3ccccc23)c(C(N)=O)c1C,"18.4 µM [falling, partial curve, poor fit]",–
Cc1cc(C(=O)C(C)Sc2cccc[n+]2[O-])c(C)n1-c1ccc(Cl)cc1 (centres undefined),"11.2 µM [falling, partial curve, poor fit]","35.5 µM [falling, single point]"
CCOc1ccc(NC(=O)CC2SC(=O)N(c3ccccc3)C2=O)cc1 (centres undefined),"22.4 µM [falling, partial curve, poor fit]",–
O=C(Nc1ccc2oc(=O)ccc2c1)c1ccccc1[N+](=O)[O-],"7.94 µM [falling, partial curve, poor fit]",–
S=C(Nc1ccccc1)N1CCN(C2CCCCC2)CC1,"23.1 µM [rising, partial curve]",–
CC(C)N1C(=O)C2ON(c3ccccc3)C(c3cccs3)C2C1=O (centres undefined),"6.51 µM [falling, single point]",–
O=C(c1ccccc1OCc1ccccc1Br)N1CCN(c2ncccn2)CC1,"20 µM [falling, single point]",–
Cn1cc(C(=O)Nc2ccc3c(c2)CCC3)cn1,"7.31 µM [rising, partial curve]",–
O=C(NCCC(=O)N1CCNC1=O)OCc1ccccc1,"23.1 µM [falling, single point]",–
Cc1cc(C)c2c(N)c(C(=O)N3CCN(c4ncccn4)CC3)sc2n1,"6.51 µM [rising, partial curve]",–

# A second format for part of the listing above:
SMILES	AC50 [1]	AC50 (measured here: IkBa-CBG green luminescence)
CC/C(=N\NC(=O)C1CC1)c1cccc(Cl)c1	8.91 µM [rising, partial curve, poor fit]	–
O=C(c1cccs1)N(C(=O)c1cccs1)c1ccc(Br)cn1	5.8 µM [falling, full curve, poor fit]	–
